Earlier results as cited in publication PMC6033897, “Characterization and Validation of a Human 3D Cardiac Microtissue for the Assessment of Changes in Cardiac Pathology” (Scientific Reports, 2018).
Counter-ions that a name gives are not always drawn.

Settings: total Cmax, therapeutically relevant maximum total plasma concentration; source not given; cited from earlier work

CCCCc1oc2ccccc2c1C(=O)c1cc(I)c(OCCN(CC)CC)c(I)c1 [Amiodarone HCl]
Cmax: 3.02 µM
